PubChem BioAssay AID1508597 | Cure First – 2020
Aim: 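Knock-downs altering ovarian cancer cell survival with or without PARP inhibitor rucaparib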 (primary screen). Cell system: human ovarian carcinoma lines grown from tumours: OCI-P5x (papillary serous) and OCI-C5x (clear cell). Reagents: siRNA pool against human genes, 1.25 pmol siRNA per well. Time to read-out: 72 h or 96 h, depending on the cell culture. Treatment: rucaparib 20 µM (about IC30) or vehicle, present until read-out. Rucaparib or vehicle: Rucaparib. Cell line: OCI-P5x (serous). Measurement: 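Luminescent ATP-based viability assay read 72 or 96 h after transfection, depending on culture, given as normalised percent viability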. Scale: viability, normalised: higher = more viable cells remaining. Active means: 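Active when normalised viability falls below 80 percent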. Calls: active = viability under 80%; inactive = viability 80% or more.
This is a random part of the about 2,100 reagents, under one of the conditions tested. 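Calls flag viability under 80% in either arm, not effects specific to rucaparib; the reference for percent is not stated.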 A number with no mark means an inactive call. A reagent listed more than once was tested more than once; the source does not tell the runs apart. Reagent sequences are not shown. Not given: the 100% reference.

gene	technical replicate	viability, normalised (%)
PARP11 (GeneID 57097)	1	41.5 (active)
PARP11 (GeneID 57097)	2	48.2 (active)
PARP11 (GeneID 57097)	3	47 (active)
RDM1 (GeneID 201299)	1	53.7 (active)
RDM1 (GeneID 201299)	2	54.4 (active)
RDM1 (GeneID 201299)	3	62.7 (active)
ARID1A (GeneID 8289)	1	99.8
ARID1A (GeneID 8289)	2	106
ARID1A (GeneID 8289)	3	91.2
UCK1 (GeneID 83549)	1	78.6 (active)
UCK1 (GeneID 83549)	2	69.1 (active)
UCK1 (GeneID 83549)	3	80.3
APEX1 (GeneID 328)	1	96.8
APEX1 (GeneID 328)	1	95.4
APEX1 (GeneID 328)	2	86.5
APEX1 (GeneID 328)	2	92.4
APEX1 (GeneID 328)	3	83.5
APEX1 (GeneID 328)	3	106
WEE2 (GeneID 494551)	1	55.9 (active)
WEE2 (GeneID 494551)	1	84
WEE2 (GeneID 494551)	2	74.3 (active)
WEE2 (GeneID 494551)	2	66.2 (active)
WEE2 (GeneID 494551)	3	47.9 (active)
WEE2 (GeneID 494551)	3	93.1

Entries listed so far whose gene name starts with P or p:
gene	technical replicate	viability, normalised (%)
PARP11 (GeneID 57097)	1	41.5 (active)
PARP11 (GeneID 57097)	2	48.2 (active)
PARP11 (GeneID 57097)	3	47 (active)
